These are yes or no findings as the source states them, for the method shown. For some of these results: Binding calls can cover weak binding; strength is not graded here. For some of these results: Where a sequence is shown, tags or fusion partners need not be part of it. For some of these results: In cells and extracts the contact can be indirect.

Chains of the proteins cited; added tags and fusions are not shown. Lines headed by an entry give the natural chain unless they say otherwise; changes in a name come on top.
UniProt Q7Z434: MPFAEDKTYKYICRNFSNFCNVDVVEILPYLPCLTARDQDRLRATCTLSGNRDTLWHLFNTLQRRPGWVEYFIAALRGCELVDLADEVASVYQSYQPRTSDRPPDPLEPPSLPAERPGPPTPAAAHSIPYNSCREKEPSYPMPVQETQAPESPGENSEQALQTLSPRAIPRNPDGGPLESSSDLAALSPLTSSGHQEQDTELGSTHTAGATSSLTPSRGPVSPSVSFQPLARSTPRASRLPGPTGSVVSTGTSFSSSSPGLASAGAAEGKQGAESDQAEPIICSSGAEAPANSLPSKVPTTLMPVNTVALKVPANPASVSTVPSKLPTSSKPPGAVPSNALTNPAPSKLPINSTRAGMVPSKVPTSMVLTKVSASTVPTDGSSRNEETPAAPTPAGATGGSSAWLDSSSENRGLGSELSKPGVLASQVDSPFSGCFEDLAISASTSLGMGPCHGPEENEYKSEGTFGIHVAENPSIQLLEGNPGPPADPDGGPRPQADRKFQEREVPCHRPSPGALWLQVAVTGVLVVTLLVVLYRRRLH

For test [1], the target named is Myc-tagged GP73 mutant WT2-ΔK2 (human) (UniProt Q8NBJ4). The test can be described thus: co-IP; HEK293 co-transfected with Flag-MAVS (2 μg) and Myc-tagged GP73 or mutants (3 μg) for 24 h; immunoprecipitated with anti-Myc; WB (S3B Fig).
In test [2] the target is Myc-tagged GP73 mutant WT2-K2E (human) (UniProt Q8NBJ4). The test is described as above.
For another test, the target named is T1, GST-GP73 (aa36-401) (human, UniProt Q8NBJ4 36-401).
T1 construct: also called recombinant GST-GP73; GST-fused GP73; source: E. coli BL21, purified (glutathione Sepharose 4B)
T1 sequence (looked up): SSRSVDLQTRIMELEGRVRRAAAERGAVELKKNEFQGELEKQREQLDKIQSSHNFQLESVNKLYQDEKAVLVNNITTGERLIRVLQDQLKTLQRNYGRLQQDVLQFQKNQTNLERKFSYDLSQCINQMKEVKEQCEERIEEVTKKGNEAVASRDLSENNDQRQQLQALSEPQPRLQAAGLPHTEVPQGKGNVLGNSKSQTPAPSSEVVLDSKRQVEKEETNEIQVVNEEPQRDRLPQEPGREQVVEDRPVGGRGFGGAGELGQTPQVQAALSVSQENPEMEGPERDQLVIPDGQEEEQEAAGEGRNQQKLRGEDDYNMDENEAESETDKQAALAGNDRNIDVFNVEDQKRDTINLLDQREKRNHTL
The test can be described thus: pull-down; purified MBP, MBP-M11 or MBP-T6CC (20 μg) with 10 μg GST or 20 μg GST-GP73 overnight at 4°C; WB (S4A Fig); both purified.

The next test concerns the target M11 MAVS ΔTIM3 (UniProt Q7Z434). The test can be described thus: co-IP; HEK293 co-transfected with GP73 plasmid and Flag-tagged (or indicated) plasmids for 24 h; lysis in 50 mM Tris-HCl, 150 mM NaCl, 1% Triton X-100, 1 mM EDTA, 10% glycerol, pH 7.4; immunoprecipitated with anti-Flag (or IgG), washed with 300 mM NaCl buffer, WB; Fig 3B, 3C, 4C-F, S4B (for Fig 4C-F the antibodies are only 'indicated').

For a further test, the target named is FL MAVS ΔTIM3 (UniProt Q7Z434). Described as above.
The target in a further test is M12 MAVS ΔTIM3 (UniProt Q7Z434). Described as above.
In test [3] the target is MAVS in Huh7-MAVSR cells (MAVS-C508R, MAVSR) (UniProt Q7Z434). The test can be described thus: co-IP; Huh7-MAVSR cells infected with HCV (MOI = 2) for the indicated days; immunoprecipitation and WB with antibodies against indicated proteins (Fig 3E).

For “Flag-MAVS (mitochondrial antiviral signaling protein), full length (from UniProt Q7Z434 1-540)”, the binding result in test [1] and in test [2] was “binds” throughout. On to “MBP-T6CC (TRAF6 coiled-coil domain) (domain or fragment)”, for which, in the test with GST-GP73 (aa36-401), the binding result is reported as “binds”.

B1: HA-GP73 (Golgi protein 73) (protein, UniProt Q8NBJ4 1-401)
chain: MMGLGNGRRSMKSPPLVLAALVACIIVLGFNYWIASSRSVDLQTRIMELEGRVRRAAAERGAVELKKNEFQGELEKQREQLDKIQSSHNFQLESVNKLYQDEKAVLVNNITTGERLIRVLQDQLKTLQRNYGRLQQDVLQFQKNQTNLERKFSYDLSQCINQMKEVKEQCEERIEEVTKKGNEAVASRDLSENNDQRQQLQALSEPQPRLQAAGLPHTEVPQGKGNVLGNSKSQTPAPSSEVVLDSKRQVEKEETNEIQVVNEEPQRDRLPQEPGREQVVEDRPVGGRGFGGAGELGQTPQVQAALSVSQENPEMEGPERDQLVIPDGQEEEQEAAGEGRNQQKLRGEDDYNMDENEAESETDKQAALAGNDRNIDVFNVEDQKRDTINLLDQREKRNHTL
Take B1: the results for the binding result in the test with M11 MAVS ΔTIM3, with FL MAVS ΔTIM3 and in the test with M12 MAVS ΔTIM3 were “no binding”, “binds weakly” and “binds weakly”, respectively.

B2: endogenous GP73 (Huh7-MAVSR) (protein, UniProt Q8NBJ4 1-401)
chain: MMGLGNGRRSMKSPPLVLAALVACIIVLGFNYWIASSRSVDLQTRIMELEGRVRRAAAERGAVELKKNEFQGELEKQREQLDKIQSSHNFQLESVNKLYQDEKAVLVNNITTGERLIRVLQDQLKTLQRNYGRLQQDVLQFQKNQTNLERKFSYDLSQCINQMKEVKEQCEERIEEVTKKGNEAVASRDLSENNDQRQQLQALSEPQPRLQAAGLPHTEVPQGKGNVLGNSKSQTPAPSSEVVLDSKRQVEKEETNEIQVVNEEPQRDRLPQEPGREQVVEDRPVGGRGFGGAGELGQTPQVQAALSVSQENPEMEGPERDQLVIPDGQEEEQEAAGEGRNQQKLRGEDDYNMDENEAESETDKQAALAGNDRNIDVFNVEDQKRDTINLLDQREKRNHTL
In the case of B2, the binding entry in test [3] is given as “binds”.
